Measured values: publication PMC9123286 (The Journal of Cell Biology, 2022)
These are yes or no findings as the source states them, for the method shown. In cells and extracts the contact can be indirect. Where a sequence is shown, tags or fusion partners need not be part of it.

Molecular target: T1, Get3 D57E-TEV-GFP (S. cerevisiae, UniProt Q12154 1-354, D57E)
T1 construct: Get3, cytosolic ATPase of the GET pathway, S. cerevisiae; ATPase-impaired client trap variant D57E; Captured on anti-GFP beads and eluted by TEV cleavage; the oligomeric state in the lysate was not measured; also called Get3 DE; Get3 D57E (DE); source: yeast (BY4741 background), ectopically expressed, in lysate made without detergent; not shown: TEV site-GFP, C-terminal, kept
T1 sequence (looked up): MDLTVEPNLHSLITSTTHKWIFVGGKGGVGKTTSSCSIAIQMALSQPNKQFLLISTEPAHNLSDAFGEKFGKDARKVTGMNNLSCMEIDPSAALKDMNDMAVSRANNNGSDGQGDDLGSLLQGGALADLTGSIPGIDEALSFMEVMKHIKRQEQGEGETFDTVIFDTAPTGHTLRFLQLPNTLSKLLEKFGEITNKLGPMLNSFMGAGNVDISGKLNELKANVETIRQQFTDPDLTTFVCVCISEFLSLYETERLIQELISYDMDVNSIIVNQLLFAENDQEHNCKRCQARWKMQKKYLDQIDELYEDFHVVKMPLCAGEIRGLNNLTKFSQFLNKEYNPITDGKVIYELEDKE
Test: co-IP; lysates from Δget3 cells ectopically expressing Get3 DE-TEV-GFP and HA-tagged Erg1 full length, ΔC, Δα1 or Δα2; anti-GFP MicroBeads, no detergent, TEV elution; immunoblot, signal normalised to Get3 in the eluate and to the input

binding: no binding
Substance: N-terminally HA-tagged Erg1 lacking the C-terminal membrane interacting region (ΔC) (S. cerevisiae) (domain or fragment)
